Values from PubChem BioAssay AID1259327 (Drosophila RNAi Screening Center, 2017).
Aim: 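Baseline ATP after transmembrane-protein gene knock-down with water vehicle only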. System: Drosophila S2R+ cells. Reagent: long dsRNA against Drosophila genes. Timing: 5 days (water added on day 4, read one day later). Challenge: water added as vehicle, no metal, one day before read-out. Measured: 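Total ATP measured by luciferase light, scaled to plate mean, duplicates averaged, then z-scored across plates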. Scale: ATP z-score: higher = more total ATP than typical wells; ATP luminescence: higher = more total ATP. Call rule: 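Called active when the ATP z-score exceeds 1.5 or falls below -1.5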. Calls: active = hit: ATP up or down; inactive = no clear ATP change.
The deposit covers about 3,100 reagents; below is a part drawn at random. In the full data, 378 (12%) got an active call. 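Hits include both directions; z-score sign shows ATP rise or fall; raw luminescence values are not plate-normalised.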 A number with no mark means an inactive call. The numbers tell different reagents against one gene apart. Not given: the amount of reagent.

| Target gene | reagent | ATP z-score, duplicate mean | ATP luminescence, replicate 1 (RLU) | ATP luminescence, replicate 2 (RLU) |
| --- | --- | --- | --- | --- |
| Kap-alpha3 (GeneID 41158) | 1 | 2.11 (active) | 4.35e5 | 8.86e5 |
| Dscam1 (GeneID 35652) | 1 | -1.07 | 4.64e5 | 5.82e5 |
| Dscam1 (GeneID 35652) | 2 | -0.572 | 5.86e5 | 4.76e5 |
| Dscam1 (GeneID 35652) | 3 | 1.27 | 9.39e5 | 1.01e6 |
| Osi13 (GeneID 40769) | 1 | -0.0815 | 9.06e5 | 8.65e5 |
| teq (GeneID 39048) | 1 | 0.358 | 9.23e5 | 9.61e5 |
| teq (GeneID 39048) | 2 | 1.58 (active) | 8.98e5 | 9.30e5 |
| mgl (GeneID 8674055) | 1 | 0.969 | 7.79e5 | 8.31e5 |
| mgl (GeneID 8674055) | 2 | -2.17 (active) | 5.03e5 | 6.53e5 |
| Gr36b (GeneID 117487) | 1 | -0.731 | 4.52e5 | 5.84e5 |
| Gr36b (GeneID 117487) | 2 | -0.229 | 6.22e5 | 4.98e5 |
| mah (GeneID 42988) | 1 | -0.675 | 2.71e5 | 6.84e5 |
| mah (GeneID 42988) | 2 | 0.422 | 8.74e5 | 8.72e5 |
| Gfrl (GeneID 3346162) | 1 | -0.0509 | 3.23e5 | 6.88e5 |
| Gfrl (GeneID 3346162) | 2 | 0.268 | 9.03e5 | 8.64e5 |
| ACXD (GeneID 38284) | 1 | 0.219 | 7.34e5 | 1.02e6 |
| amrt (GeneID 32342) | 1 | -1.09 | 5.58e5 | 6.63e5 |
| amrt (GeneID 32342) | 2 | -1.63 (active) | 7.98e5 | 9.17e5 |
| AstC-R2 (GeneID 40019) | 1 | -1.25 | 7.04e5 | 6.85e5 |
| AstC-R2 (GeneID 40019) | 2 | -0.719 | 4.42e5 | 3.70e5 |
| rdgB (GeneID 32340) | 1 | -0.0274 | 7.61e5 | 6.86e5 |
| rdgB (GeneID 32340) | 2 | -1.06 | 9.88e5 | 9.39e5 |
| CG4101 (GeneID 39857) | 1 | -0.741 | 7.80e5 | 8.17e5 |

The list goes on (4 carried over from the part before).
| Target gene | reagent | ATP z-score, duplicate mean | ATP luminescence, replicate 1 (RLU) | ATP luminescence, replicate 2 (RLU) |
| --- | --- | --- | --- | --- |
| AstC-R2 (GeneID 40019) | 2 | -0.719 | 4.42e5 | 3.70e5 |
| rdgB (GeneID 32340) | 1 | -0.0274 | 7.61e5 | 6.86e5 |
| rdgB (GeneID 32340) | 2 | -1.06 | 9.88e5 | 9.39e5 |
| CG4101 (GeneID 39857) | 1 | -0.741 | 7.80e5 | 8.17e5 |
| Gr33a (GeneID 34641) | 1 | -0.367 | 6.86e5 | 6.88e5 |
| Gr33a (GeneID 34641) | 2 | -0.444 | 4.60e5 | 4.09e5 |
| mge (GeneID 38459) | 1 | -1.09 | 8.34e5 | 6.76e5 |
| CG2126 (GeneID 43748) | 1 | 1.04 | 5.82e5 | 7.93e5 |
| CG42685 (GeneID 34854) | 1 | 0.45 | 7.86e5 | 7.62e5 |
| CG42685 (GeneID 34854) | 2 | 0.492 | 4.20e5 | 5.47e5 |
| Scgalpha (GeneID 34135) | 1 | 0.552 | 8.15e5 | 7.55e5 |
| Scgalpha (GeneID 34135) | 2 | 0.562 | 8.89e5 | 8.91e5 |
| CG31445 (GeneID 326140) | 1 | 0.117 | 7.33e5 | 7.03e5 |
| CG31445 (GeneID 326140) | 2 | 1.83 (active) | 1.08e6 | 1.01e6 |
| ETHR (GeneID 42523) | 1 | 0.275 | 3.36e5 | 7.29e5 |
| ETHR (GeneID 42523) | 2 | 0.432 | 9.13e5 | 8.40e5 |
| Tapdelta (GeneID 45680) | 1 | -0.168 | 6.88e5 | 7.38e5 |
| Tapdelta (GeneID 45680) | 2 | -0.363 | 4.62e5 | 3.98e5 |
| Gr43a (GeneID 35655) | 1 | 0.205 | 6.70e5 | 6.05e5 |
| Gr43a (GeneID 35655) | 2 | -1.13 | 4.00e5 | 3.77e5 |
| opm (GeneID 32435) | 1 | 5.47 (active) | 9.39e5 | 1.15e6 |
| opm (GeneID 32435) | 2 | -0.36 | 8.24e5 | 7.39e5 |
| Gr22b (GeneID 117492) | 1 | 0.412 | 8.16e5 | 7.56e5 |
| Gr66a (GeneID 38935) | 1 | 0.267 | 9.58e5 | 9.04e5 |
| Gr66a (GeneID 38935) | 2 | 0.722 | 5.57e5 | 7.45e5 |
| SCAP (GeneID 35529) | 1 | -0.658 | 5.46e5 | 5.74e5 |
| SCAP (GeneID 35529) | 2 | 0.86 | 7.44e5 | 6.50e5 |
| rasp (GeneID 44098) | 1 | -0.124 | 8.80e5 | 8.79e5 |
| rasp (GeneID 44098) | 2 | -0.71 | 4.69e5 | 3.86e5 |
| CG2991 (GeneID 33488) | 1 | 1.36 | 5.02e5 | 6.53e5 |
| CG2991 (GeneID 33488) | 2 | -1.27 | 7.25e5 | 8.20e5 |
| nAChRalpha5 (GeneID 34826) | 1 | -1.04 | 6.73e5 | 5.61e5 |
| CG10165 (GeneID 35242) | 1 | 0.688 | 4.59e5 | 6.00e5 |
| CG33203 (GeneID 43414) | 1 | -0.122 | 5.34e5 | 7.15e5 |
| CG33203 (GeneID 43414) | 2 | -0.947 | 7.50e5 | 6.71e5 |
| CG5326 (GeneID 42655) | 1 | -0.259 | 3.13e5 | 6.70e5 |
| CG5326 (GeneID 42655) | 2 | 1.44 | 1.02e6 | 1.04e6 |
| GlyT (GeneID 37772) | 1 | -0.798 | 6.51e5 | 6.32e5 |
| GlyT (GeneID 37772) | 2 | -0.0651 | 8.27e5 | 8.58e5 |
| Or19a (GeneID 59214) | 1 | 1.29 | 8.47e5 | 9.21e5 |
| Tsp42Ep (GeneID 35626) | 1 | -0.3 | 6.52e5 | 6.97e5 |
| Marf (GeneID 31581) | 1 | -0.0596 | 8.24e5 | 7.81e5 |
| CG31523 (GeneID 326148) | 1 | 1.37 | 6.98e5 | 1.08e6 |
| CG31523 (GeneID 326148) | 2 | 1.09 | 9.70e5 | 1.11e6 |
| CG7218 (GeneID 42165) | 1 | 0.276 | 7.57e5 | 7.12e5 |
| CG7218 (GeneID 42165) | 2 | 0.2 | 7.92e5 | 8.60e5 |
| Oatp58Da (GeneID 37543) | 1 | -0.575 | 6.53e5 | 6.77e5 |
| Oatp58Da (GeneID 37543) | 2 | 0.867 | 9.63e5 | 9.53e5 |
| Lap1 (GeneID 36670) | 1 | 0.34 | 6.85e5 | 6.15e5 |
| Lap1 (GeneID 36670) | 2 | 0.541 | 4.87e5 | 5.18e5 |
